Measurements: patent EP4755921A1
No constants are given. Whether binding was seen depends on the method and setting. Some binding calls cover weakened binding; strength is not graded here.

Amino acid sequences for entries named in this document (tags omitted).
UniProt Q9NZD1: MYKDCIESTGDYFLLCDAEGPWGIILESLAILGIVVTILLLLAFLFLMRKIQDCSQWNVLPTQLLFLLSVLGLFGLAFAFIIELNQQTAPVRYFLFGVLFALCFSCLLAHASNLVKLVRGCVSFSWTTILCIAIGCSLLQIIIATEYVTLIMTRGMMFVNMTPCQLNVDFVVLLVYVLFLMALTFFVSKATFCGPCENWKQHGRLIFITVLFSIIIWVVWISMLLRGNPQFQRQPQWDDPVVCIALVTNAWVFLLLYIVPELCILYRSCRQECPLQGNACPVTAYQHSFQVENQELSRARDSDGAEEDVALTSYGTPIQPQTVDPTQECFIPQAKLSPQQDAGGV

Biological target: GPRC5D (G protein-coupled receptor family C group 5 member D) (UniProt Q9NZD1)
Assay: hybridoma cell screening; method of the binding test not described

B1: anti-GPRC5D antibody (obtained through hybridoma cell screening) (antibody, V domains shown)
VH: QVQLQESGPGLVKPSETLSLTCTVSGYSITSDYAWNWIRQPPGKGLEWMGYISYSGSATYSPSLKSRITISRDTSKNQFSLKLSSVTAADTAVYYCARGGIAGRGRWGAMDYWGQGTTVTVSS
VL: DIQMTQSPSSLSASVGDRVTITCKASQNVGTNVAWYQQKPGQSPKALIYSASYRDSGVPDRFSGSGSGTDFTLTISSLQPEDFATYYCQQYKSYPLTFGQGTRLEIK
binding: binds
